Assay results taken from the supplement of paper PMC4635364.
Where a name gives a salt, the structure may show the parent alone. The list shows a part of the results. This data set is noisy: repeats of one test often differ as much as different tests do.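 Human fetal ventral-midbrain neural progenitor line ReNCell VM, differentiated without mitogens. Images stained for doublecortin (early neurons) or tyrosine hydroxylase (dopaminergic neurons) were scored by blinded raters against untreated wells (0 = no change). Repeats and both raters were averaged, and compounds averaging 2 or higher were picked as hits for retesting.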

These compounds were tested on ReNCell VM (assay: neuronal differentiation score (DCX+ cell fraction vs untreated, manual image score) (score (-3 to 3)); higher = more neuronal differentiation). Details: library: Tocriscreen; 2 uM; 2 weeks.

Neuronal differentiation score, inactive:
CN1CCN2c3ncccc3Cc3ccccc3C2C1 (configuration not stated) [Mirtazepine] 0
CCOC(=O)C1=C(N)Oc2ccc(Br)cc2C1C(C#N)C(=O)OCC (configuration not stated) 0
CC(C)Oc1cccc(-n2c(CCc3c[nH]c4ccc(Br)cc34)nc3ccccc3c2=O)c1 0
NCCCCCCCCCCNS(=O)(=O)c1cccc2c(Cl)cccc12 [A-7 hydrochloride] 0

Each compound was assayed on ReNCell VM (assay: dopaminergic neuron differentiation score (TH+ cell fraction vs untreated, manual image score) (score (0 to 3)); higher = more TH+ dopaminergic neuron differentiation). Details: library: LOPAC; 2 uM; 4 weeks; BDNF 10 ng/ml + GDNF 10 ng/ml.

Dopaminergic neuron differentiation score, inactive:
Nc1ncnc2c1c(-c1ccc(Oc3ccccc3)cc1)cn2C1CCCC1 0
C[C@H](O)C(=O)C1=Nc2c(nc(N)[nH]c2=O)NC1 [Sepiapterin] 0
COC(=O)C(N)Cc1ccc(Cl)cc1 (racemic) [DL-p-Chlorophenylalanine methyl ester hydrochloride] 0
Cc1ccc(C(=O)Nc2ccc(S(=O)(=O)O)c3cc(S(=O)(=O)O)cc(S(=O)(=O)O)c23)cc1NC(=O)c1cccc(NC(=O)Nc2cccc(C(=O)Nc3cc(C(=O)Nc4ccc(S(=O)(=O)O)c5cc(S(=O)(=O)O)cc(S(=O)(=O)O)c45)ccc3C)c2)c1 [Suramin sodium salt] 0
O=C(c1ccccc1)c1ccc2n1CCC2C(=O)O (configuration not stated) [Ketorolac tris salt] 0
CCNC(=O)N1CCN(CCCC(c2ccc(F)cc2)c2ccc(F)cc2)CC1 [Amperozide hydrochloride] 0
COC(=O)C1=C(C)NC(C)=C(C(=O)OC(C)(C)CN(C)CCC(c2ccccc2)c2ccccc2)C1c1cccc([N+](=O)[O-])c1 (configuration not stated) [Lercanidipine hydrochloride hemihydrate] 0
NC[C@@H](O)c1ccc(O)c(O)c1 [L(-)-Norepinephrine bitartrate] 0

Pulled one by one from the entries so far, two records:
Dopaminergic neuron differentiation score, inactive:
COC(=O)C1=C(C)NC(C)=C(C(=O)OC(C)(C)CN(C)CCC(c2ccccc2)c2ccccc2)C1c1cccc([N+](=O)[O-])c1 (configuration not stated) [Lercanidipine hydrochloride hemihydrate] 0
Cc1ccc(C(=O)Nc2ccc(S(=O)(=O)O)c3cc(S(=O)(=O)O)cc(S(=O)(=O)O)c23)cc1NC(=O)c1cccc(NC(=O)Nc2cccc(C(=O)Nc3cc(C(=O)Nc4ccc(S(=O)(=O)O)c5cc(S(=O)(=O)O)cc(S(=O)(=O)O)c45)ccc3C)c2)c1 [Suramin sodium salt] 0
